1 molecule from publication PMC11417767 can be followed below.

For the assay, the target named is T1, Fas-apoptotic inhibitory molecule 2 (FAIM2), rat retina (rat (endogenous in rat retina)) (UniProt O88407).
T1 sequence: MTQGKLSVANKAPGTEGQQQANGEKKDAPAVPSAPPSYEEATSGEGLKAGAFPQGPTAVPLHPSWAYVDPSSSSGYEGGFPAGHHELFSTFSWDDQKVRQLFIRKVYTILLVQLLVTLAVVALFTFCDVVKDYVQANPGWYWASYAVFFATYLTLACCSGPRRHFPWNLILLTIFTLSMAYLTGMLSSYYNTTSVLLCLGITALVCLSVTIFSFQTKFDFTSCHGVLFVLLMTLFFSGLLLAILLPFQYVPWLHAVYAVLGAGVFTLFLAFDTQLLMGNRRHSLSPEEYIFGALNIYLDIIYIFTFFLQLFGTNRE
In words: co-IP; FAIM2 antibody (OriGene) on Dynabeads protein G, 500 μg of lysate of attached or detached rat retina, 4 °C overnight; immunoblot for αA- or αB-crystallin.

Results are given in words; binding and its absence hold for the method and conditions named. In cells and extracts the contact can be indirect. Some entries that bind do so weakly or less than the wild type.

B1: αB-crystallin (HSPB5), rat retina (protein, UniProt P23928 1-175)
chain: MDIAIHHPWIRRPFFPFHSPSRLFDQFFGEHLLESDLFSTATSLSPFYLRPPSFLRAPSWIDTGLSEMRMEKDRFSVNLDVKHFSPEELKVKVLGDVIEVHGKHEERQDEHGFISREFHRKYRIPADVDPLTITSSLSSDGVLTVNGPRKQASGPERTIPITREEKPAVTAAPKK
For B1, the binding entry is listed as “binds”.
